This is one part of the list. The data scatter; read single values as rough.
Experiments:
[1] = compound: ClCC(=O)N[C@@H]1CCCc2ccccc12; assay: log2 mean competition ratio of IA-DTB cysteine labelling (DMSO/compound) (log2 ratio); higher = stronger cysteine engagement by compound; conditions: treatment time: 4 h, cell line lysate: HEK293T
Procedure: (§1)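 IA-DTB competitive cysteine chemoproteomics in HEK293T RIPA lysate. Lysates were treated with compound 29 or 30 at 50 or 200 µM for 4 h, then IA-DTB (500 µM, 1 h), trypsin-digested, NeutrAvidin-enriched and analysed by diaPASEF. Competition ratio = intensity DMSO / intensity compound (n=4 treated, n=64 DMSO); binding: mean log2 CR ≥ 1 and p ≤ 0.05 plus QC filters. Target is the cysteine site.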

[2] = compound: ClCC(=O)N[C@H]1CCCc2ccccc12; assay: as above; conditions: treatment time: 4 h, cell line lysate: HEK293T
Procedure: as §1

| Target | log2 mean competition ratio ([1]; 50 µM) | log2 mean competition ratio ([1]; 200 µM) | log2 mean competition ratio ([2]; 50 µM) | log2 mean competition ratio ([2]; 200 µM) |
| --- | --- | --- | --- | --- |
| FAM120C C745 (UniProt Q9NX05) | -0.00453 | 0.242 | 0.074 | 0.106 |
| ETFA C68 (UniProt P13804) | -0.111 | 0.0168 | 0.0744 | 0.0798 |
| EML3 C816 (UniProt Q32P44) | -0.263 | -0.0953 | -0.397 | -0.128 |
| ETF1 C335 (UniProt P62495) | 0.0855 | -0.442 | -0.152 | -0.441 |
| FAM193B C400 (UniProt Q96PV7) | 0.342 | 0.316 | 0.0914 | -0.324 |
| ELP4 C412 (UniProt Q96EB1) | 0.0643 | -0.146 | -0.445 | -0.0911 |
| ERLEC1 C79 (UniProt Q96DZ1) | -0.148 | 0.131 | -0.388 | 0.315 |
| FANCL C12 (UniProt Q9NW38) | -0.059 | 0.329 | -0.107 | 0.519 |
| ELP4 C7 (UniProt Q96EB1) | -0.325 | 0.0824 | -0.369 | 0.0715 |
| FANCI C156 (UniProt Q9NVI1) | 0.0929 | 0.161 | 0.184 | 0.141 |
| EMD C147 (UniProt P50402) | -0.508 | 0.0233 | 0.224 | -0.047 |
| ELP2 C127 (UniProt Q6IA86) | 0.0592 | -0.537 | -0.525 | -0.22 |
| FANCD2 C1369 (UniProt Q9BXW9) | 0.0464 | -0.0553 | -0.051 | -0.0101 |
| FAM76A C108 (UniProt Q8TAV0) | -0.239 | 0.248 | -0.0223 | 0.222 |
| ERLIN2 C262 (UniProt O94905) | -0.0261 | -0.144 | -0.0481 | -0.0383 |
| EVI5L C150 (UniProt Q96CN4) | 0.0738 | 0.191 | 0.0606 | 0.519 |
| ERI1 C314 (UniProt Q8IV48) | 0.253 | -0.273 | -0.000197 | 0.213 |
| ETF1 C302 (UniProt P62495) | -0.0339 | -0.088 | -0.485 | -0.17 |
| EMC8 C161 (UniProt O43402) | -0.576 | -0.121 | 0.0503 | -0.162 |
| ERO1A_(C99,C99,C104,C104) (UniProt Q96HE7) | 0.00205 | 0.197 | -0.189 | -0.0839 |
| EPS15 C782 (UniProt P42566) | 0.0886 | -0.694 | 0.341 | -0.612 |
| ETF1 C97 (UniProt P62495) | 0.107 | 0.116 | 0.168 | -0.387 |
| ERAL1 C150 (UniProt O75616) | 0.183 | -0.09 | 0.266 | 0.052 |
| FAM185A C106 (UniProt Q8N0U4) | 0.182 | 0.147 | 0.171 | 0.13 |
| FAM120A C919 | 0.115 | 0.237 | 0.0496 | 0.0845 |

11 entries from above, bar-delimited:
Target | log2 mean competition ratio ([1]; 50 µM) | log2 mean competition ratio ([1]; 200 µM) | log2 mean competition ratio ([2]; 50 µM) | log2 mean competition ratio ([2]; 200 µM)
FANCD2 C1369 (UniProt Q9BXW9) | 0.0464 | -0.0553 | -0.051 | -0.0101
FAM76A C108 (UniProt Q8TAV0) | -0.239 | 0.248 | -0.0223 | 0.222
ERLIN2 C262 (UniProt O94905) | -0.0261 | -0.144 | -0.0481 | -0.0383
EVI5L C150 (UniProt Q96CN4) | 0.0738 | 0.191 | 0.0606 | 0.519
ERI1 C314 (UniProt Q8IV48) | 0.253 | -0.273 | -0.000197 | 0.213
ETF1 C302 (UniProt P62495) | -0.0339 | -0.088 | -0.485 | -0.17
EMC8 C161 (UniProt O43402) | -0.576 | -0.121 | 0.0503 | -0.162
ERO1A_(C99,C99,C104,C104) (UniProt Q96HE7) | 0.00205 | 0.197 | -0.189 | -0.0839
EPS15 C782 (UniProt P42566) | 0.0886 | -0.694 | 0.341 | -0.612
ETF1 C97 (UniProt P62495) | 0.107 | 0.116 | 0.168 | -0.387
ERAL1 C150 (UniProt O75616) | 0.183 | -0.09 | 0.266 | 0.052

The listing continues.

| Target | log2 mean competition ratio ([1]; 50 µM) | log2 mean competition ratio ([1]; 200 µM) | log2 mean competition ratio ([2]; 50 µM) | log2 mean competition ratio ([2]; 200 µM) |
| --- | --- | --- | --- | --- |
| EVI5 C479 (UniProt O60447) | -0.0885 | -0.0453 | -0.392 | -0.184 |
| EPB41 C179 | -0.151 | -0.0944 | -0.153 | 0.104 |
| EP400 C1761 (UniProt Q96L91) | 0.149 | -0.0553 | -0.0343 | -0.0143 |
| ETAA1 C893 (UniProt Q9NY74) | -0.153 | 0.0987 | -0.193 | 0.277 |
| ENAH C7 (UniProt Q8N8S7) | -0.248 | 0.468 | -0.317 | 0.248 |
| EML3 C307 (UniProt Q32P44) | 0.0147 | -0.361 | 0.0701 | -0.203 |
| ESPL1 C57 (UniProt Q14674) | 0.148 | -0.0483 | 0.101 | 0.0418 |
| ERN1 C538 (UniProt O75460) | 0.299 | 0.0787 | 0.207 | -0.299 |
| EXPH5 C1311 | -0.0116 | -0.00322 | 0.0286 | 0.000206 |
| EXD2 C284 (UniProt Q9NVH0) | 0.024 | -0.0206 | -0.222 | 0.0281 |
| ETFA C53 (UniProt P13804) | -0.143 | 0.033 | -0.206 | -0.0116 |
| EXOC1 C566 (UniProt Q9NV70) | -0.163 | 0.145 | -0.0367 | 0.000847 |
| ERCC6L C356 (UniProt Q2NKX8) | -0.499 | -0.137 | -0.247 | -0.0351 |
| EMG1 C66 (UniProt Q92979) | -0.19 | 0.0405 | -0.139 | 0.0448 |
| EXOC2 C586 (UniProt Q96KP1) | 0.501 | 0.381 | -0.177 | -0.153 |
| EXOC3 C150 (UniProt O60645) | 0.0622 | 0.169 | 0.203 | 0.812 |
| ELP1 C820 (UniProt O95163) | -0.256 | 0.397 | -0.707 | 0.362 |
| EXOC5 C254 (UniProt O00471) | -0.164 | -0.165 | -0.203 | -0.01 |
| ERI3 C313 | 0.43 | 0.546 | -0.265 | 0.259 |
| EXOC4 C619 (UniProt Q96A65) | 0.117 | -0.0529 | 0.0709 | -0.126 |
| ELP2 C810 (UniProt Q6IA86) | -0.254 | -0.303 | 0.0502 | -0.455 |
| ERBIN C1309 (UniProt Q96RT1) | 0.15 | 0.294 | -0.102 | -0.0127 |
| EPRS1 C350 | 0.201 | -0.113 | 0.275 | -0.0228 |
| ETHE1 C219 (UniProt O95571) | 0.00978 | -0.308 | -0.332 | -0.15 |
